Earlier results in patent US20110189161A1, “NUTRIGENOMICS METHODS AND COMPOSITIONS” (priority 2008, published 2011).
Some entries share one result that the patent states for a list of compounds.

Tested on: C57BL/6CrSlc and C3H/HeSlc mice
Conditions: systemic treatment; cited from earlier work

Compound	pain threshold (hot-plate method)
CC(C)C[C@@H](N)C(=O)O [D-leucine]	140-175 % of the control
N[C@H](Cc1ccccc1)C(=O)O [D-phenylalanine]	140-175 % of the control
